PubChem BioAssay AID1159578 – Peter MacCallum Cancer Centre – 2015

Purpose: 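siRNA pools altering how lymphatic endothelial cells close a scratch wound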 (primary screen)
System: human lymphatic endothelial cells
Reagents: siRNA pool against human genes, 40 nM
Timing: 48 h after transfection
Detection: 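Cells stained with dye and imaged after a scratch; covered wound area and nuclei counted, duplicates averaged, migration set against mock wells and turned into a robust z-score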
Direction: migration robust z-score: higher = faster migration into the scratch; nuclei per well: higher = more cells in the well
Active means: 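Pools averaging fewer than 3300 nuclei are never called; remaining pools count as changed when migration robust z lies outside -2 to 2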
Calls: active = migration changed; inactive = no migration change, or too few cells
The whole screen tested about 18,000 reagents; below is a random part of them. Over the whole deposit, about 1,030 (5.7%) are marked active. 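Inactive calls also include pools with fewer than 3300 nuclei, whose migration was not assessed.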 The raw values are shown without normalisation. Entries without a mark were called inactive. Further read-outs or replicates are left out here. No sequences are given here.

Which result is listed for OGFOD2?
migration robust z-score: 0.18; nuclei per well, duplicate mean: 5589

With SORBS2 (sorbin and SH3 domain containing 2), what was measured?
migration robust z-score: -0.4; nuclei per well, duplicate mean: 6225

With TCEAL6 (transcription elongation factor A like 6), what was measured?
migration robust z-score: -3.83 (active); nuclei per well, duplicate mean: 3792

How did the screen score XCR1 (X-C motif chemokine receptor 1)?
migration robust z-score: -0.2; nuclei per well, duplicate mean: 7126

Which result is listed for FLT3LG (fms related receptor tyrosine kinase 3 ligand)?
migration robust z-score: 0.29; nuclei per well, duplicate mean: 5840

What is on record for SCD5 (stearoyl-CoA desaturase 5)?
migration robust z-score: 0.39; nuclei per well, duplicate mean: 4540

With MED21 (mediator complex subunit 21), what does the deposit list?
migration robust z-score: -0.91; nuclei per well, duplicate mean: 6572

How did the screen score MAP2K4 (mitogen-activated protein kinase kinase 4)?
migration robust z-score: -1.77; nuclei per well, duplicate mean: 4002

With TFE3 (transcription factor binding to IGHM enhancer 3), what was measured?
migration robust z-score: -0.14; nuclei per well, duplicate mean: 7670

For WDR4, what does the deposit list?
migration robust z-score: 0.16; nuclei per well, duplicate mean: 5880

For NPTXR (neuronal pentraxin receptor), what does the deposit list?
migration robust z-score: -0.48; nuclei per well, duplicate mean: 5256

Ordered by “nuclei per well, duplicate mean” (low to high): 3 of the entries above
TCEAL6 (transcription elongation factor A like 6) — migration robust z-score = -3.83 (active); nuclei per well, duplicate mean = 3792
SORBS2 (sorbin and SH3 domain containing 2) — migration robust z-score = -0.4; nuclei per well, duplicate mean = 6225
XCR1 (X-C motif chemokine receptor 1) — migration robust z-score = -0.2; nuclei per well, duplicate mean = 7126

The list goes on:
What is on record for SPEN (spen family transcriptional repressor)?
migration robust z-score: 0.34; nuclei per well, duplicate mean: 5358

What is on record for DYNLT2 (dynein light chain Tctex-type 2)?
migration robust z-score: 0.33; nuclei per well, duplicate mean: 6308

How did the screen score PVALB (parvalbumin)?
migration robust z-score: -0.12; nuclei per well, duplicate mean: 5902

With UCMA (upper zone of growth plate and cartilage matrix associated), what was measured?
migration robust z-score: -0.96; nuclei per well, duplicate mean: 4464

For TCAF2 (TRPM8 channel associated factor 2), what does the deposit list?
migration robust z-score: -1.23; nuclei per well, duplicate mean: 6434

What did the screen give for OPN3 (opsin 3)?
migration robust z-score: 0.57; nuclei per well, duplicate mean: 6664

For POLR3K (RNA polymerase III subunit K), how do the results read?
migration robust z-score: 0.3; nuclei per well, duplicate mean: 5752

What did the screen give for SPRYD4 (SPRY domain containing 4)?
migration robust z-score: 0.56; nuclei per well, duplicate mean: 6520

What did the screen give for CENPE (centromere protein E)?
migration robust z-score: 0.34; nuclei per well, duplicate mean: 4984

With SEMA3D (semaphorin 3D), what does the deposit list?
migration robust z-score: -0.01; nuclei per well, duplicate mean: 6290

Which result is listed for ZC3HC1 (zinc finger C3HC-type containing 1)?
migration robust z-score: 0.66; nuclei per well, duplicate mean: 6462

How did the screen score IL25 (interleukin 25)?
migration robust z-score: -1.75; nuclei per well, duplicate mean: 3707

For ITGAD (integrin subunit alpha D), how do the results read?
migration robust z-score: 0.99; nuclei per well, duplicate mean: 5806

For ABCA9 (ATP binding cassette subfamily A member 9), what was measured?
migration robust z-score: -0.7; nuclei per well, duplicate mean: 4891

With THG1L (tRNA-histidine guanylyltransferase 1 like), how do the results read?
migration robust z-score: 0.1; nuclei per well, duplicate mean: 5073

What is on record for RAB3GAP2 (RAB3 GTPase activating non-catalytic protein subunit 2)?
migration robust z-score: -0.62; nuclei per well, duplicate mean: 5358
